These are yes or no findings as the source states them, for the method shown. In cells and extracts the contact can be indirect. A yes stands for co-enrichment or nearness to the bait. Other partners may have been found.
Assays:
[1] = biological target: embryonic ectoderm development (EED) (mouse (endogenous in TSCs and ESCs)) (UniProt Q921E6); experiment: affinity purification with mass spectrometry; EED IP from WT ESC whole-cell lysates against an IgG control; Evosep One with timsTOF SCP, DIA-PASEF, Dia-NN; t-test with Benjamini-Hochberg correction
[2] = biological target: embryonic ectoderm development (EED) (mouse (endogenous in TSCs and ESCs)) (UniProt Q921E6); experiment: affinity purification with mass spectrometry; EED IP from WT TSC whole-cell lysates, compared with Eed KO TSCs; Pierce MS-Compatible Magnetic IP Kit, on-bead tryptic digest, LC-MS/MS (Q-Exactive HF), MaxQuant

Amino acid sequences for entries named in this document (tags omitted).
UniProt Q921E6: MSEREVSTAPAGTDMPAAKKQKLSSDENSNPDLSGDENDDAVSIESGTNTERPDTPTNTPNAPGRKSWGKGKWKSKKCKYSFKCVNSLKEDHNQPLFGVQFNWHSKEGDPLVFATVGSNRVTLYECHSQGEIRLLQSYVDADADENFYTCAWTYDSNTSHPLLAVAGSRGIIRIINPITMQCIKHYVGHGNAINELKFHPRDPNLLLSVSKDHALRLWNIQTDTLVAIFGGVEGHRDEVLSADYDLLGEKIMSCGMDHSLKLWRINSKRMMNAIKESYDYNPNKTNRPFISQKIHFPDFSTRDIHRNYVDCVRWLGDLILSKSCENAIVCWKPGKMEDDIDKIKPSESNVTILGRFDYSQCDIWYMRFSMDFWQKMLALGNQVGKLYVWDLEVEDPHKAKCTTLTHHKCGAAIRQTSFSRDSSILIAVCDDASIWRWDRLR
UniProt Q02395: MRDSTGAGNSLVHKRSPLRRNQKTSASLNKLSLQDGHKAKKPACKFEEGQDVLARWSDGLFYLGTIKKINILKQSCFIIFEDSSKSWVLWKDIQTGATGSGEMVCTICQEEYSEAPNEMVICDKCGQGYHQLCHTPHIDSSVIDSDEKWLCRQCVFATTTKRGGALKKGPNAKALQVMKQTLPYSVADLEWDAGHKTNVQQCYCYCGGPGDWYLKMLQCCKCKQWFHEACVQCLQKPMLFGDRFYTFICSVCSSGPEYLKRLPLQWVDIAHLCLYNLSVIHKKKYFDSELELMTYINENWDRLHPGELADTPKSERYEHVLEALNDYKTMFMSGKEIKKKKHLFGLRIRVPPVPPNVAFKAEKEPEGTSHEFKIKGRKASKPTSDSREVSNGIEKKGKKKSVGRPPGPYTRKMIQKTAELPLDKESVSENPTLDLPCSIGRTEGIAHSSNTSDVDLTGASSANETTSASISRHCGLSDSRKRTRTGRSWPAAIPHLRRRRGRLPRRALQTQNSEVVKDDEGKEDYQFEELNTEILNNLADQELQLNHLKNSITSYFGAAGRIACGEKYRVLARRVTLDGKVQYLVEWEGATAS

MTF2 (from UniProt Q02395 1-593) was tested. Which binding [1] did it give?
Its binding is “binds”.

What about the binding [2] of the same substance?
The binding was “binds”.

Reference: article PMC10104784
